For this experiment, the target named is Beclin1 BH3 domain peptides on the Beclin1 peptide array (residues 105-125) (UniProt Q14457). The experiment can be described thus: peptide or protein array; 16mer peptide array of Beclin1 residues 1-450 on membrane, overlaid with recombinant DIRAS3 at 1 µg/mL in 1% BSA/PBS, 2 h at room temperature; detected with primary and secondary antibody, HRP; both purified.

Chains of the proteins cited; added tags and fusions are not shown. Residues count along the entry.
UniProt Q14457, residues 105-125: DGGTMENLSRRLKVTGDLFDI
UniProt O95661: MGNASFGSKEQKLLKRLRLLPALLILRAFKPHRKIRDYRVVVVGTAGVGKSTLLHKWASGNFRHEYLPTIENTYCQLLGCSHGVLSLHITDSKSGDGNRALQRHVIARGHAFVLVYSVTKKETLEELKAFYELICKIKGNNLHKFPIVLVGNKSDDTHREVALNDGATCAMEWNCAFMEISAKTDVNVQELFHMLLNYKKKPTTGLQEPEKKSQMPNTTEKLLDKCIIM

No constants are given. Whether binding was seen depends on the method and setting.

In the case of “DIRAS3 recombinant protein (from UniProt O95661 1-229)”, the binding entry is listed as “no binding (tested: 1 µg/mL)”.

(Values after PMC6521623, “DIRAS3-Derived Peptide Inhibits Autophagy in Ovarian Cancer Cells by Binding to Beclin1” (Cancers, 2019).)
